In PMC4451422, “Catch me if you can: a biotinylated proteoliposome affinity assay for the investigation of assembly of the MexA-MexB-OprM efflux pump from Pseudomonas aeruginosa” (Frontiers in Microbiology, 2015):
These are yes or no findings as the source states them, for the method shown.

Assays:
[1] = biological target: T1, MexB (Pseudomonas aeruginosa) (UniProt P52002); test: pull-down; MagStrep (streptavidin) magnetic beads sediment biotin-lipid proteoliposomes with MexB or MexAB; OprM in separate proteoliposomes; non-energized: 25 mM Hepes pH7, 100 mM K2SO4, 2 mM MgSO4; 20 min at room temperature; pellets on SDS-PAGE, Coomassie; both purified
T1 sequence: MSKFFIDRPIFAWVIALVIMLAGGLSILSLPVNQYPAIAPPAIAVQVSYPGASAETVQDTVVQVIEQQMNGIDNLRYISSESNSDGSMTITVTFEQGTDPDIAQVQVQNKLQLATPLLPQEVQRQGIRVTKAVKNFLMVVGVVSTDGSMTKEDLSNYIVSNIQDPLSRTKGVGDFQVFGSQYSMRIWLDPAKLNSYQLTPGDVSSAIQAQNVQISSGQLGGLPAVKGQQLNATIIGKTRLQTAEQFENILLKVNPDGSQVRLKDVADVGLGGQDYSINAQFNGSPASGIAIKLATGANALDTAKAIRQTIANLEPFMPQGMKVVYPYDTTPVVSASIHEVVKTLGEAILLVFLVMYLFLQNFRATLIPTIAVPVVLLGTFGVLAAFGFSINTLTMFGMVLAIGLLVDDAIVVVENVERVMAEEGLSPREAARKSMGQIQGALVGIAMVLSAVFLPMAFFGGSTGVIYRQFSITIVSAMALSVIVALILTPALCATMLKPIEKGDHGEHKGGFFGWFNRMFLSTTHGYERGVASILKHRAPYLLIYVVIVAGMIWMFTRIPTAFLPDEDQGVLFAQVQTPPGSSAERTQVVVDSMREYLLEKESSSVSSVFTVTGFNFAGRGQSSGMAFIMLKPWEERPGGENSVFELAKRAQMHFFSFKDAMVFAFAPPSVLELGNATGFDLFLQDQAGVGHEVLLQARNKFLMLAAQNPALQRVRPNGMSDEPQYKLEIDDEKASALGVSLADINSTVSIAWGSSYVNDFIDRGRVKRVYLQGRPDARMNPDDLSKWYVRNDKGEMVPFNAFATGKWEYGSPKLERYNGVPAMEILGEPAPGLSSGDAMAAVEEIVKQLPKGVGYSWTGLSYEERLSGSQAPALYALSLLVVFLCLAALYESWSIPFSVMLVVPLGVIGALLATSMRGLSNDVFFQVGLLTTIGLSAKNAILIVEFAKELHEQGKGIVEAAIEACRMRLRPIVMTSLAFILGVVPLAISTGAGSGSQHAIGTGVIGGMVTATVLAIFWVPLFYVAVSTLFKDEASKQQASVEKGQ

[2] = biological target: T2, MexB proteoliposomes in the presence of a soluble version of MexA (MexAnp) (Pseudomonas aeruginosa) (UniProt P52477); test: as above
T2 sequence 1: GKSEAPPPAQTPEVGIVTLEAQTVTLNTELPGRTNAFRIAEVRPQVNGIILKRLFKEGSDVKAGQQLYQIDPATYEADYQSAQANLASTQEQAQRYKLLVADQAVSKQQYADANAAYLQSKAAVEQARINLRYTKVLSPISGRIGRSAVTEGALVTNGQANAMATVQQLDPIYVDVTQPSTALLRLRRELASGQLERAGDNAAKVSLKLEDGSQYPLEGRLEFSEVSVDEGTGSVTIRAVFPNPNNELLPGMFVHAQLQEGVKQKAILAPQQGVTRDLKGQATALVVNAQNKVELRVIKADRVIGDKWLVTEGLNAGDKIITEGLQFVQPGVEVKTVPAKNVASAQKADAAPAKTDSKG
T2 sequence 2: T1 sequence

[3] = biological target: T3, MexAB: MexA (palmitoylated) and MexB reconstituted together in biotinylated proteoliposomes (Pseudomonas aeruginosa) (UniProt P52477); test: condition: only 5 min after generation of the pH gradient (transport at steady state); pull-down; as a1 but diluted with 20 mM Mes Tris pH6, 100 mM K2SO4, 2 mM MgSO4 to generate a pH gradient; beads added after a 5-min incubation (t = 5 min, transport at steady state); both purified
T3 sequence (chain, palmitoylated (lipid anchor); residue not stated) 1: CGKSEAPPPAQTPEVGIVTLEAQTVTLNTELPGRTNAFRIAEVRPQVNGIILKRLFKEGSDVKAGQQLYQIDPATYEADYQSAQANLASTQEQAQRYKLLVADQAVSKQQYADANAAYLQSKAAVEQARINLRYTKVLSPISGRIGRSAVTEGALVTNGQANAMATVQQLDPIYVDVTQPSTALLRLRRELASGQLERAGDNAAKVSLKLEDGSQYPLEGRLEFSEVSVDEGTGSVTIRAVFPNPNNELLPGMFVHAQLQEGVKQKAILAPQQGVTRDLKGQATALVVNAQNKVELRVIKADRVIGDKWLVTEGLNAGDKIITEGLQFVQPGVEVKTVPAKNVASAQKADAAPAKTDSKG
T3 sequence (chain, palmitoylated (lipid anchor); residue not stated) 2: T1 sequence

Measured: binding

B1: OprM (natural protein)
chain: CSLIPDYQRPEAPVAAAYPQGQAYGQNTGAAAVPAADIGWREFFRDPQLQQLIGVALENNRDLRVAALNVEAFRAQYRIQRADLFPRIGVDGSGTRQRLPGDLSTTGSPAISSQYGVTLGTTAWELDLFGRLRSLRDQALEQYLATEQAQRSAQTTLVASVATAYLTLKADQAQLQLTKDTLGTYQKSFDLTQRSYDVGVASALDLRQAQTAVEGARATLAQYTRLVAQDQNALVLLLGSGIPANLPQGLGLDQTLLTEVPAGLPSDLLQRRPDILEAEHQLMAANASIGAARAAFFPSISLTANAGTMSRQLSGLFDAGSGSWLFQPSINLPIFTAGSLRASLDYAKIQKDINVAQYEKAIQTAFQEVADGLAARGTFTEQLQAQRDLVKASDEYYQLADKRYRTGVDNYLTLLDAQRSLFTAQQQLITDRLNQLTSEVNLYKALGGGWNQQTVTQQQTAKKEDPQA
notes: OprM, outer membrane channel of the MexA-MexB-OprM efflux pump, Pseudomonas aeruginosa; Purified by the protocol of Phan et al., 2010 with minor modifications; also called OMF; OprM proteoliposomes
no binding: [1] | [2] | [3]
